Primary screen of a compound library

From ChEMBL document CHEMBL3988442, “University of Dundee, Small-Polar-MMV Screening Library” (2021).

A: 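Whole-cell growth test on Mycobacterium tuberculosis, read after 3 days in glucose-containing 7H9 medium; the read-out is not stated. Concentration: 50 µM. Higher reads as more growth inhibition (inferred: compounds with an IC50 in retests scored well above the rest). Of about 69,000 compounds tested this way, about 760 (1.1%) reached 50% or more in at least one test.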
B: 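Whole-cell growth test on Mycobacterium tuberculosis, read after 4 days in a medium based on cholesterol and the lipid DPPC; the read-out is not stated. Compounds at 50 µM. Higher reads as more growth inhibition (inferred: compounds with an IC50 in retests scored well above the rest). About 69,000 compounds were tested under these conditions; 0.54% (about 370) showed 50% or more at least once.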

Values are the deposited “Percent Effect”, in %. The controls that fix the scale are not given in the record; negative values are as filed. This is an unselected part of the compounds tested. Two or more numbers in one place are separate tests of the same structure; such repeats can differ widely.

Compound	A	B
CCN(CC1CCCN(CCc2cccc(OC)c2)C1)C(=O)CN(C)C (centres unmarked)	17.7%	-16.86% & -0.2729%
CCc1nc(C2CCCN2C(=O)c2ccc(N(C)C)nn2)no1 (centres unmarked)	9.364%	1.317%
Cc1nc(COC[C@H]2CCC[C@]23CN(C2CCOC2)CCO3)cs1 (some centres unmarked)	14.43%	-16.71%
CCc1nc(C)c(CN2CCOC(CCCC(C)C)C2)[nH]1 (centres unmarked)	-7.845% & -0.4901%	-17.36%
O=C(O)C(F)(F)F.O=C1CC2(CCCCN2CC2CC2)CN1c1ccccc1 (centres unmarked)	-4.477% & -3.919%	-3.041%
Cn1cc(C(=O)N2CCCC2c2[nH]ncc2C(N)=O)cn1 (centres unmarked)	-19.57%	-14.36%
COCCCN(CCOC)C(=O)Nc1ccccc1-n1cccn1	24.54%	4.613%
CCn1ccnc1CN(C)c1cc(C2CC2)ncn1	4.114% & -1.951%	-6.023%
[H][C@@]12C[C@H](c3nc(C)no3)CN(Cc3ccncc3)[C@]1([H])CCO2	21.95%	-2.097%
COc1ccc(C(=O)N2CC(=O)N(Cc3cccs3)CC(O)C2)cc1 (centres unmarked)	5.813%	-2.681%
COC(=O)c1cc(NCc2cscn2)ccc1C	-3.52%	-2.785%
CC(C)CN1CCC(NC(=O)c2ccc(F)cc2F)CC1	14.75%	2.789%
OCCNC1CSCCc2ccccc21 (centres unmarked)	-6.73%	4.286%
Cn1c(CN2CC[C@](C)(O)C(C)(C)C2)cc2ccccc21	-10.41%	-5.593%
Cc1cc(C)n(CC2CCCN2C(=O)c2ccnc(N(C)C)c2)n1 (centres unmarked)	8.25%	-4.225%
CSCCc1nc(C(C)C)nn1-c1ccncc1C	-17.34%	0.7206%
NC(=O)c1cccnc1N1CCN(c2ncnc3c2CCNC3)CC1	9.541%	-0.8361%
O=c1c(CN2CCSCC2)coc(O)c1CN1CCCC1	-17.08%	2.461%
NC(=O)c1ccc(N2CCN(Cc3ccc(F)cc3Cl)CC2)nn1	0.9437% & 18.73%	16.29%
CCCSCC(=O)N1CCC2(CC1)CC(c1ccccc1)CN(C)C2 (centres unmarked)	-7.958%	-27.45%
Cc1nc(C)n(CC2CCCN(c3ncnc4c3CCC4)C2)n1 (centres unmarked)	-4.064%	-12.74%
Cc1ccc(C(=O)N2CCc3ncnc(C)c3CC2)o1	-18.68% & -8.339%	-10.33%
CCCc1nc(CN(C)CCOc2ccccc2)cs1	32.72%	40.91%
Cc1ccc2cc(C3(O)CCN(C)CC3)ccc2n1	-14.94%	-26.75%
CN(Cc1cnn(C)c1)C(=O)c1cc2ccccc2c(=O)[nH]1	-8.918%	-24.12%
COCCn1cncc1CN1CCCC(C(=O)Cc2ccccc2)C1 (centres unmarked)	12.4%	-24.4%
C1CC(c2noc(C3CC3)n2)N(Cc2nc(C3CC3)no2)C1 (centres unmarked)	-25.84%	-30.4%
O=C(O)C(F)(F)F.O=C(O)C(F)(F)F.[H][C@]12CCN(C(=O)Cc3ccc(C)cc3)C[C@@]1([H])OCCN(CCN(C)C)C2	-20.03%	-15.13%
CC(=O)N1CC2(CCNCC2)c2cc(C)ccc21	15.85%	-2.26%
Cc1nn(C)c(C)c1OCC(=O)N1CCCC1	7.28%	-7.002%
COc1ccccc1CC(C)(C)NC(=O)CN(C)C(C)C	24.3% & 10.3%	8.83%
COCC(C)N(C)C(=O)NC1CCN(c2ncccn2)CC1 (centres unmarked)	-68.18%	-3.879% & 4.256%
Cn1cc(C2=CCN(CCCOc3ccc(C(N)=O)cc3)CC2)cn1	9.472%	3.254%
Cc1nnc(C(NS(=O)(=O)c2cc(C)c(F)cc2F)C(C)C)[nH]1 (centres unmarked)	16.17%	19.66%
CCOc1ccnc(NCc2nc(C)cc(=O)[nH]2)n1	-25.02%	-10.67%
O=C(NCc1nn(-c2ccccc2)c2c1CCC2)C1CC1	20.76%	7.474%
CCN1CC2(CCC1=O)CCN(C(=O)c1cn3cccnc3n1)CC2	9.218%	-15.62%
COC1CN(C(=O)CC(C)(C)C)CCC(=O)N(C)c2ccccc21 (centres unmarked)	4.348%	-3.824%
Cc1ccc(Cl)cc1-n1nnnc1C1(N2CCCC2)CCCC1	11.19% & 18.4%	3.397%
COC(=O)[C@H]1C[C@@H](O)CCN1S(=O)(=O)c1c(C)cc(OC)c(C)c1C	4.28% & 0.1226%	-10.66%
CCN(C)C[C@H]1CC[C@@H](Cc2ccc3c(cnn3C)c2)O1	3.98% & 4.1%	3.063%
Cc1ccn(Cc2nc(CC(C)C)no2)c(=O)c1	2.055% & 9.795%	8.985%
N#Cc1cccnc1N[C@@H]1c2ccccc2C[C@@H]1O	23.01%	11.64%
O=C1CC(N(C(=O)c2ccc(-n3cccc3)cc2)C2CC2)C(=O)N1 (centres unmarked)	-3.942% & -18.55%	-2.387%
CN1CC2(CCN(Cc3ncc[nH]3)CC2)CC1=O	19.52%	9.906%
COc1cccc(-c2noc3c2CN(c2nc(C)ncc2C)CC3)c1	56.68%	49.05%
CC(C)N1Cc2cccc(NCC(=O)N(C)C)c2C1	-11.37%	10.2%
CCOCC1CN(C(=O)N(C)C)Cc2nn(C)cc21 (centres unmarked)	-8.371%	17.35%
Cc1ncoc1C(=O)N1CCOC(Cc2ccccc2)C1 (centres unmarked)	19.03%	16.76%
CC(C)NC(=O)N1Cc2nccn2CC(CN2CCCC2)C1.O=C(O)C(F)(F)F (centres unmarked)	-7.031%	-22.83%
CN(C)C(=O)N1CCN(c2ccc(Cl)nn2)C(=O)C1	9.11%	1.059%
[H][C@@]12CCN(c3cnccn3)C[C@@]1(C(=O)O)CCCN2Cc1ccccn1	-21.95%	6.637% & -9.457%